Measurements published in PubChem BioAssay AID493014 (National Center for Advancing Translational Sciences (NCATS), 2011).
Out of some 340,000 compounds screened, about 170 (0.05%) were called active. Inconclusive means that the source gave no clear call. Such entries were picked first, then a sample of the others. Calls follow the shape of the dose curve; as a rule, active = well fitted inhibition curve with a large enough effect in the signal ratio, with a control signal flat (not every such curve was filed as active); inconclusive = small, poorly fitted or top-dose-only effect, or effect the other way, or a change in a side signal; inactive = flat fitted curve, though single readings scatter; the % refers to the signal ratio. Potencies beside an inconclusive call are fits to weak or partial responses and may not hold up.

experiment: qHTS Assay to Find Inhibitors of Chronic Active B-Cell Receptor Signaling; conditions: ABC-DLBCL IkBa-CBG/CBR reporter, luminescence ratio (green luciferase fused to IkBa over red control in TMD8 lymphoma cells), 4 h; activity change, negative = inhibition: at 46.1 µM (top of the series);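 as to activity change, negative = inhibition: plate controls were basal doxycycline-induced cells for no effect and cells given 10 µM MG132 for full effect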
Method in brief: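 TMD8 ABC-DLBCL cells carrying doxycycline-inducible green luciferase fused to IkappaBalpha plus unfused red luciferase were exposed to compounds (up to 46 uM) for 4 hrs at 37C. Activity came from the overlap-corrected green/red luminescence ratio.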
Potency is read from the fitted curve at half-maximal effect.

SMILES | activity change, negative = inhibition | Potency
Cc1cc2cc(CNC(=O)C3CC3)ccc2n1C | inconclusive: 3.39% | 
COc1ccc(CCn2c(NN)nc3c2c(=O)[nH]c(=O)n3C)cc1 |  | inconclusive: 35.5 µM [falling, partial curve, poor fit]
Cc1ccc(NC(=O)C2CC(=O)N(C(C)c3ccccc3)C2)cc1 (stereo not given) | inconclusive: 11.9% | 
C[C@@H]1CN([C@H](C)CO)C(=O)c2cc(NC(=O)Nc3ccc(F)cc3)ccc2O[C@H]1CN(C)C(=O)Nc1ccc(C(F)(F)F)cc1 | inconclusive: 1.71% | 
CCOC(=O)c1c(C)nc2sc(C(N)=O)c(N)c2c1-c1ccc(OC)cc1 | inconclusive: -12.4% | 
CN1CCN(CC(O)COC(c2ccc(Cl)cc2)c2ccc(Cl)cc2)CC1 (stereo not given) | inconclusive: -16.3% | 
Cc1cccc(OCC(=O)O/N=C(\N)c2ccccn2)c1C |  | inconclusive: 28.2 µM [falling, single point]
CCOc1ccc(S(=O)(=O)N(CC)CC(=O)N2CCCC2)cc1C | inconclusive: 0.676% | 
O=C(Nc1nccs1)c1ccc(-c2ccccc2Cl)o1 |  | inconclusive: 29.1 µM [falling, single point]
CCOC(=O)Cc1ccc2sc(-c3ccccc3)nc2c1 |  | inconclusive: 23.1 µM [falling, single point]
CC1(C)CC(=O)C2=C(C1)N(CCN1CCOCC1)C1=C(C(=O)CC(C)(C)C1)C2c1cccc(F)c1 |  | inconclusive: 9.2 µM [rising, partial curve, poor fit]
COc1ccc(Oc2ccc(C(F)(F)F)cc2NC(=O)c2ccc(F)cc2)cc1 | inconclusive: 7.88% | 
Cc1ccc(/C=N/NC(=O)c2ccc3nc[nH]c3c2)s1 |  | inconclusive: 11.2 µM [falling, partial curve]
Cc1ccc(NC(=O)COCC(=O)Nc2ccc(C)cc2)cc1 | inactive: -16.2% | 
COc1ccc(N2CCN(C(=O)CN3C(=O)NC4(CCCc5ccccc54)C3=O)CC2)cc1 (stereo not given) | inactive: 2.14% | 
Cc1cc(=O)c2cc(NC(=O)c3ccccc3Cl)ccc2[nH]1 |  | inconclusive: 5.01 µM [falling, partial curve]
O=C(COC(=O)CC(c1ccccc1)c1ccccc1)Nc1ccc(F)c(F)c1 |  | inconclusive: 17.8 µM [falling, single point]
CC(=O)N1CC(C)Sc2ccc(S(=O)(=O)NCc3ccc(Cl)cc3)cc21 (stereo not given) | inconclusive: -3.56% | 
COc1ccc(/C=C/C(=O)c2cc3cccc(OC)c3oc2=O)cc1 | inactive: -12% | 
CCC(=O)NNc1ncnc2c1cnn2-c1cccc(C)c1 |  | inconclusive: 7.08 µM [rising, partial curve, poor fit]
COc1cccc(CNC(=O)C2CCC(CNc3nc(=S)[nH]c4ccccc34)CC2)c1 (stereo not given) | inactive: -0.159% | 
CC(=O)Nc1ccc(S(=O)(=O)N2CCC(C(=O)NCCc3c[nH]c4ccccc34)CC2)cc1 | inactive: 0.0251% | 
O=C(Nc1ccc(Br)cc1)c1ccc(N2C(=O)C3CC=CCC3C2=O)cc1 (stereo not given) | inconclusive: 0.885% | 
COc1ccc(COC(=O)C2=C(C)NC(=O)NC2c2cc(OC)ccc2OC)cc1 (stereo not given) | inconclusive: -18.2% | 
FC(F)(F)c1cnc(Oc2ccccc2-c2nnco2)c(Cl)c1 | inconclusive: 11.7% | 
O=C(NNC(=O)c1ccccc1O)c1ccco1 |  | inconclusive: 35.5 µM [rising, single point]
O=C(Cn1cc[n+](CC(=O)c2ccc(Cl)cc2Cl)c1)c1ccc(Cl)cc1Cl | inconclusive: -15.6% | 

Part of the list above in a different format.
COc1ccc(Oc2ccc(C(F)(F)F)cc2NC(=O)c2ccc(F)cc2)cc1
  activity change, negative = inhibition: inconclusive: 7.88%
COc1cccc(CNC(=O)C2CCC(CNc3nc(=S)[nH]c4ccccc34)CC2)c1 (stereo not given)
  activity change, negative = inhibition: inactive: -0.159%

(more compounds)

SMILES | activity change, negative = inhibition | Potency
O=C(CCC(=O)N(CC(=O)NC1CCCCC1)Cc1ccco1)Nc1nccs1 | inconclusive: -1.14% | 
Cc1ccc(S(=O)(=O)c2c(N)n(Cc3ccco3)c3nc4ccccc4nc23)cc1C | inconclusive: 3.91% | 
COc1ccccc1NC(=O)C(=O)Nc1ccccn1 |  | inconclusive: 0.794 µM [rising, full curve, poor fit]
Cc1ccc(NC(=O)CN2c3cccc4cccc(c34)S2(=O)=O)cc1 | inconclusive: -12.5% | 
CC(C)c1ccc(NC(=O)[C@H](NC(=O)[C@@H]2Cc3ccccc3CN2)c2ccccc2)cc1 | inconclusive: 0.631% | 
CC(C)C[C@H](NC(=O)c1[nH]cnc1C(=O)Nc1ccc(CNC(=O)OC(C)(C)C)cc1)C(=O)OC(C)(C)C | inactive: 11.3% | 
Cn1c(-c2ccccc2)c(C=O)c2ccccc21 | inconclusive: 0.247% | 
COc1ccccc1-n1c(SCC(=O)N2CCOCC2)nc2ccccc2c1=O | inactive: 1.03% | 
O=C(CCc1nnc2ccc(NCc3ccco3)nn12)Nc1ccc(F)cc1 |  | inconclusive: 10 µM [falling, partial curve]
COCCCNC(=S)N1CCC(C(=O)c2ccc3c(c2)OCCO3)CC1 | inactive: -16.4% | 
COc1cc(NC(=O)c2cc(Cl)nnc2Cl)cc(OC)c1OC | inconclusive: 0.395% | 
Brc1cc(Br)c2nc(-c3ccc(N4CCOCC4)cc3)ccc2c1 | inconclusive: 14.3% | 
O=C(COc1ccccc1)N=C1SC2CS(=O)(=O)CC2N1c1cccc(F)c1 (stereo not given) | inconclusive: 9.28% | 
c1ccc2c(N3CCCCC3)nnc(N3CCCCC3)c2c1 | inconclusive: 11.4% | 
Cc1ccc2c(c1)c(C)c(C)n2CC(O)Cn1nnc2ccccc21 (stereo not given) | inconclusive: -0.383% | 
CCOc1ncccc1C(=O)Nc1cccc(S(=O)(=O)NC2=NCCC2)c1 | inconclusive: -18.2% | 
CCN(CC)Cc1c[nH]c2c(C(=O)OC)cccc12 |  | inconclusive: 6.31 µM [falling, single point]
Cc1nc(-c2ccc(C(=O)Nc3cccc(Br)c3)cc2)cs1 |  | inconclusive: 25.1 µM [falling, single point]
C=C1CCN([C@H](C(=O)NCc2ccc(Cl)c(Cl)c2)C(C)C)S(=O)(=O)c2ccccc21 | inconclusive: -1.07% | 
CCCCCCC(=O)N(O)C1CC(=O)N(c2ccc(C)cc2)C1=O (stereo not given) |  | inconclusive: 13 µM [falling, partial curve, poor fit]
O=C1NC[C@@H](Cc2ccc(O)cc2)N(CC2CCCCC2)C1=O | inconclusive: 0.712% | 
COC(=O)CCN1CCC(C(N)=O)CC1 | inconclusive: -0.523% | 
CCOC(=O)CSc1nnc(NC(=O)CN2CCN(C=O)CC2)s1 | inconclusive: 6.01% | 
Cc1cc(C(=O)CCl)c(C)n1CCc1ccccc1 | inactive: -18.8% | 
Cn1cccc1C(=O)NC(=O)COC(=O)c1ccc(S(C)(=O)=O)c([N+](=O)[O-])c1 | inconclusive: -8.66% | 
CC(=O)NC(Cc1ccccc1C)C(=O)NC1CCN(C(=O)NCc2ccccc2)CC1 (stereo not given) | inconclusive: -14% | 
Cc1c(Br)c([N+](=O)[O-])nn1CC(=O)NC1CCCCCC1 |  | inconclusive: 0.891 µM [falling, partial curve, poor fit]

SMILES | activity change, negative = inhibition | Potency
CCC1CCCCN1CCCNC(=O)Cn1c(=O)c2cccn2c2cccnc21 (stereo not given) | inactive: 3.82% | 
CCn1c(SCC(=O)Nc2ccc(C(C)=O)cc2)nc2ccccc21 | inconclusive: 0.353% | 
N#Cc1cc(C(=O)c2cc(Cl)ccc2O)cn(-c2ccccc2)c1=O | inactive: 0.161% | 
Cc1snnc1C(=O)NC(=S)Nc1ccccc1 | inactive: -16.7% | 
NC(=O)/C=C\c1cn(-c2ccccc2)nc1-c1ccc2c(c1)OCCO2 | inactive: -16% | 
O=C1C2CC=C(Cl)CC2C(=O)N1CCN1CCOCC1 (stereo not given) | inactive: -0.0512% | 
COc1ccc(NC(C)=O)cc1S(=O)(=O)N(C)Cc1c(C)nn(-c2ccccc2)c1C | inconclusive: 0.0291% | 
COc1ccc(OC)c(NC(=O)CC2SC(=Nc3ccccc3)N(CCc3ccccn3)C2=O)c1 (stereo not given) | inactive: -9.89% | 
COCCOC(=O)C1=C(C)N=c2s/c(=C\c3cccs3)c(=O)n2C1c1cccs1 (stereo not given) |  | inconclusive: 0.92 µM [falling, partial curve, poor fit]
CC(=O)c1cccc(NC(=S)NCCc2ccc(Cl)cc2)c1 | inconclusive: -2.4% | 
Cc1ccc(O)c(C(=O)c2cc(C#N)c(=O)n(-c3nccs3)c2)c1 | inconclusive: 28.9% | 
Cc1nc(-c2ccc(C)c(S(=O)(=O)N3CCC(C(=O)NCc4ccc(F)cc4)CC3)c2)no1 | inactive: -7.02% | 
O=C(NNC(=O)C1CCN(Cc2ccc(Cl)c(Cl)c2)CC1)c1cccs1 | inactive: 6.14% | 
COC(=O)c1scc(C#N)c1N/N=C(\C#N)S(=O)(=O)c1ccc(Cl)cc1 | inactive: 0.882% | 
COc1cccc(C(=O)N(Cc2ccccc2)Cc2cc3cc4c(cc3[nH]c2=O)OCCO4)c1 | inactive: 1.06% | 
Cc1ccc2c(c1)/C(=C/c1ccccc1)C(=O)N2 |  | inconclusive: 35.5 µM [falling, single point]
O=C(CCc1c[nH]c2ccccc12)NCCc1ccccc1 | inconclusive: 6.69% | 
Cc1nc(SCC(=O)N2c3ccccc3Sc3ccccc32)n[nH]1 |  | inconclusive: 18.4 µM [falling, single point]
CCSc1nnc(NC(=O)c2cccnc2)s1 |  | inconclusive: 18.4 µM [falling, partial curve]
O=C(Nc1cccc2cccnc12)C1CCCC1 | inconclusive: 3.43% | 
O=C(NCCCN1CCOCC1)c1cc(-c2ccc(F)cc2)on1 | inconclusive: -10.2% | 
O=C(N/N=C/c1cccs1)c1cccc2cc[nH]c12 |  | inconclusive: 35.5 µM [rising, single point]
O=C(N/N=C/c1ccc(-c2ccccc2Cl)o1)c1ccccc1 |  | inconclusive: 35.5 µM [falling, single point]
COc1ccc(C(=O)NC(=S)Nc2ccc(N3CCOCC3)c(Cl)c2)cc1[N+](=O)[O-] | inconclusive: 6.18% | 
CCN(CC)C(=O)C1CCCN(c2ncnc3c2c(-c2ccccc2)cn3-c2cccc(C)c2)C1 (stereo not given) | inactive: -0.111% | 
CCC(=O)Nc1ccc(Cl)c(NC(=S)NC(=O)COc2ccccc2)c1 | inconclusive: 7.39% | 

A second format for some results above.
Cc1snnc1C(=O)NC(=S)Nc1ccccc1
  activity change, negative = inhibition: inactive: -16.7%
NC(=O)/C=C\c1cn(-c2ccccc2)nc1-c1ccc2c(c1)OCCO2
  activity change, negative = inhibition: inactive: -16%
O=C1C2CC=C(Cl)CC2C(=O)N1CCN1CCOCC1 (stereo not given)
  activity change, negative = inhibition: inactive: -0.0512%
COc1ccc(NC(C)=O)cc1S(=O)(=O)N(C)Cc1c(C)nn(-c2ccccc2)c1C
  activity change, negative = inhibition: inconclusive: 0.0291%
